{"source": "PubChem BioAssay AID1508597 (Cure First, 2020)", "assay": "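Knock-downs altering ovarian cancer cell survival with or without PARP inhibitor rucaparib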 (primary screen)", "system": "human ovarian carcinoma lines grown from tumours: OCI-P5x (papillary serous) and OCI-C5x (clear cell)", "reagents": "siRNA pool against human genes, 1.25 pmol siRNA per well", "time to read-out": "72 h or 96 h, depending on the cell culture", "challenge": "rucaparib 20 µM (about IC30) or vehicle, present until read-out", "rucaparib or vehicle": "Vehicle", "cell line": "OCI-P5x (serous)", "detection": "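Luminescent ATP-based viability assay read 72 or 96 h after transfection, depending on culture, given as normalised percent viability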", "direction": "viability, normalised: higher = more viable cells remaining", "rule for the call": "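Active when normalised viability falls below 80 percent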", "calls": "active = viability under 80%; inactive = viability 80% or more", "note": "This is a random part of the about 2,100 reagents, under one of the conditions tested. 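Calls flag viability under 80% in either arm, not effects specific to rucaparib; the reference for percent is not stated.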 Some reagents were tested in more than one well and are listed for each. Not stated in the record: the 100% reference."}
{"Target gene":"H1-9P (H1.9 linker histone, pseudogene)","technical replicate":"1","viability, normalised (%)":48.1,"activity call":"active"}
{"Target gene":"H1-9P (H1.9 linker histone, pseudogene)","technical replicate":"2","viability, normalised (%)":62.6,"activity call":"active"}
{"Target gene":"H1-9P (H1.9 linker histone, pseudogene)","technical replicate":"3","viability, normalised (%)":66.4,"activity call":"active"}
{"Target gene":"MATK (megakaryocyte-associated tyrosine kinase)","technical replicate":"1","viability, normalised (%)":111,"activity call":"inactive"}
{"Target gene":"MATK (megakaryocyte-associated tyrosine kinase)","technical replicate":"1","viability, normalised (%)":94.9,"activity call":"inactive"}
{"Target gene":"MATK (megakaryocyte-associated tyrosine kinase)","technical replicate":"2","viability, normalised (%)":102,"activity call":"inactive"}
{"Target gene":"MATK (megakaryocyte-associated tyrosine kinase)","technical replicate":"2","viability, normalised (%)":103,"activity call":"inactive"}
{"Target gene":"MATK (megakaryocyte-associated tyrosine kinase)","technical replicate":"3","viability, normalised (%)":93.3,"activity call":"inactive"}
{"Target gene":"MATK (megakaryocyte-associated tyrosine kinase)","technical replicate":"3","viability, normalised (%)":116,"activity call":"inactive"}
{"Target gene":"PDE6A (phosphodiesterase 6A)","technical replicate":"1","viability, normalised (%)":61.7,"activity call":"active"}
{"Target gene":"PDE6A (phosphodiesterase 6A)","technical replicate":"2","viability, normalised (%)":45.4,"activity call":"active"}
{"Target gene":"PDE6A (phosphodiesterase 6A)","technical replicate":"3","viability, normalised (%)":48.5,"activity call":"active"}

Called active, of those listed so far:
{"Target gene":"H1-9P (H1.9 linker histone, pseudogene)","technical replicate":"1","viability, normalised (%)":48.1,"activity call":"active"}
{"Target gene":"H1-9P (H1.9 linker histone, pseudogene)","technical replicate":"2","viability, normalised (%)":62.6,"activity call":"active"}
{"Target gene":"H1-9P (H1.9 linker histone, pseudogene)","technical replicate":"3","viability, normalised (%)":66.4,"activity call":"active"}
{"Target gene":"PDE6A (phosphodiesterase 6A)","technical replicate":"1","viability, normalised (%)":61.7,"activity call":"active"}
{"Target gene":"PDE6A (phosphodiesterase 6A)","technical replicate":"2","viability, normalised (%)":45.4,"activity call":"active"}
{"Target gene":"PDE6A (phosphodiesterase 6A)","technical replicate":"3","viability, normalised (%)":48.5,"activity call":"active"}

Additional records:
{"Target gene":"DDX56 (DEAD-box helicase 56)","technical replicate":"1","viability, normalised (%)":54,"activity call":"active"}
{"Target gene":"DDX56 (DEAD-box helicase 56)","technical replicate":"2","viability, normalised (%)":62.8,"activity call":"active"}
{"Target gene":"DDX56 (DEAD-box helicase 56)","technical replicate":"3","viability, normalised (%)":63,"activity call":"active"}
{"Target gene":"PRPF19 (pre-mRNA processing factor 19)","technical replicate":"1","viability, normalised (%)":43.8,"activity call":"active"}
{"Target gene":"PRPF19 (pre-mRNA processing factor 19)","technical replicate":"1","viability, normalised (%)":52.4,"activity call":"active"}
{"Target gene":"PRPF19 (pre-mRNA processing factor 19)","technical replicate":"2","viability, normalised (%)":45.7,"activity call":"active"}
{"Target gene":"PRPF19 (pre-mRNA processing factor 19)","technical replicate":"2","viability, normalised (%)":46,"activity call":"active"}
{"Target gene":"PRPF19 (pre-mRNA processing factor 19)","technical replicate":"3","viability, normalised (%)":42.7,"activity call":"active"}
{"Target gene":"PRPF19 (pre-mRNA processing factor 19)","technical replicate":"3","viability, normalised (%)":67.1,"activity call":"active"}
